According to patent US7214519B2, “Screening method for identifying heme independent modulators of soluble guanylyl cyclase (sGC) activity using αβCys105 mutant sGC” (Board of Regents of the University of Texas System, priority 2003, dated 2007):
Where a chain is given by its changes, count along the chain named. At least one compound was matched to its structure with a doubt left.

Legend:
[1] = molecular target: T1, αβ^Cys105 mutant sGC (Homo sapiens, UniProt Q02108+Q02153, H105C); assay: Assay of sGC activity ([32P]cGMP formation from GTP), purified αβ^Cys105 mutant enzyme; assay type: biochemical; conditions: 1 μM PPIX
T1 construct: made in house; host or cells: Sf9 cells (baculovirus)
T1 sequence (Q02153 1-619 H105C): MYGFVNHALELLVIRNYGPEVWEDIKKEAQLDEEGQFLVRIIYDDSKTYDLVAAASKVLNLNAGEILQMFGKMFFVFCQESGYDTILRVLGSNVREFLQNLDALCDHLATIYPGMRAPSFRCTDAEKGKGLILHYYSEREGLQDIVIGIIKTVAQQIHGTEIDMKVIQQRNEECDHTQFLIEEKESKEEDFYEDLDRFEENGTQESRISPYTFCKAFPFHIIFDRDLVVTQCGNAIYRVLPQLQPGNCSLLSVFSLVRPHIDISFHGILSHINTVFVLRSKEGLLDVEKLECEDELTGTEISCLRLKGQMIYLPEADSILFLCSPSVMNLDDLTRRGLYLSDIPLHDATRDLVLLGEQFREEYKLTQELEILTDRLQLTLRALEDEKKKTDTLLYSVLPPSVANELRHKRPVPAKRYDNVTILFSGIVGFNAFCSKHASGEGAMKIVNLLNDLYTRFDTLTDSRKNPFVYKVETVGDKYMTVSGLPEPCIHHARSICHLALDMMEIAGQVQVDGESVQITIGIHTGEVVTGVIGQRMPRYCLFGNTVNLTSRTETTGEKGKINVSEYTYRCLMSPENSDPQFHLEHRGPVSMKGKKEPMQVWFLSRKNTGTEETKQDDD
T1 sequence (Q02108 1-690): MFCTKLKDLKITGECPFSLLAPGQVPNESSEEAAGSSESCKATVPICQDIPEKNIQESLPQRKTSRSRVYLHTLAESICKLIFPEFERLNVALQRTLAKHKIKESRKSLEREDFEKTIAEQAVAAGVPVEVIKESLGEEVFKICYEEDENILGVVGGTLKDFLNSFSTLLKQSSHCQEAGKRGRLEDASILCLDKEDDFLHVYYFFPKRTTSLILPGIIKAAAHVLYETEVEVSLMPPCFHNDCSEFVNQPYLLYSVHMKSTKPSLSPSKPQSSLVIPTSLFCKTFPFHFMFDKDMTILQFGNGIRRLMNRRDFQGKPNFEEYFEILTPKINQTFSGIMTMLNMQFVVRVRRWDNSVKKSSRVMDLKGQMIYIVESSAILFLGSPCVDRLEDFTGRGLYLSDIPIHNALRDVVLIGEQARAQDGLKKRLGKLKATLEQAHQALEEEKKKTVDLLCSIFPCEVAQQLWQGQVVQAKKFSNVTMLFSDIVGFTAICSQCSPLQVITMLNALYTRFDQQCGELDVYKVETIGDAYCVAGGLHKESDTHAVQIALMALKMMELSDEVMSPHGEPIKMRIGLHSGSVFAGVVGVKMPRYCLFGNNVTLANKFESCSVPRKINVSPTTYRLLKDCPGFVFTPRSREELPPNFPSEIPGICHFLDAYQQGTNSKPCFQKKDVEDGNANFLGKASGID
Method: sGC Expression and Purification. […] Purification of sGC was performed as described earlier (26), the disclosure of which is hereby incorporated herein by reference, with the following modifications. Cells were harvested 72 h post infection, resuspended in loading buffer (25 mM triethanolamine, pH 7.5. 10 glycerol, 4 mM MgCl2 and 1 mM phenylmethylsulfonyl fluoride, and 5 μg/ml each of pepstatin A, leupeptin, aprotinin, and chymostatin,) and lysed by sonication. The lysate was subjected to 100,000×g centrifugation for 1 h. The high-speed supernate was loaded on a 60 ml DEAE-Sepharose (Amersham Pharmacia Biotech) column and washed with 60 ml of loading buffer without protease inhibitors. The proteins were eluted with loading buffer containing 250 mM NaCl and the eluate was directly loaded on a 30 ml His-Bind resin (Novagen) column. The column was washed with 60 ml of loading buffer followed by 60 ml of loading buffer with 45 mM imidazole. The enzyme was eluted with 175 mM imidazole and 2 ml fractions were collected. […] The enzyme at this stage was approximately 90–95% pure. To remove imidazole, sGC-containing fractions were diluted 3 fold with 25 mM triethanolamine pH 7.5, loaded on a 2 ml Hi-Trap DEAE-Sepharose column (Amersham Pharmacia Biotech), washed with 10 ml of loading buffer and eluted with 25 mM triethanolamine pH 7.5, 250 mM NaCl, 10 glycerol, 4 mM MgCl2, 0.5 mM EDTA, 0.5 mM EGTA. The enzyme obtained at this stage (95% or greater purity) was used for experiments.
Assay of sGC Activity. Enzyme activity was assayed by formation of [^32P] cGMP from α[^32P]GTP at 37° C. in a final volume of 100 μl. Incubation medium contained 50 mM triethanolamine-HCl buffer (pH 7.4), 1 mM 3-isobutyl-1-methylxanthine (IBMX), 1 mg/ml BSA. […] Columns were then eluted with 10 ml 0.1 M Tris-HCl buffer (pH 7.5) and Cherenkov radiation in flow through plus eluate was counted in a LKB liquid scintillation spectrometer. […] The concentration of dimethylsulfoxide (DMSO) used as a vehicle for YC-1 was not higher than 0.1 and had no effect on sGC activity as determined previously.

[2] = molecular target: T2, wild type sGC (Homo sapiens, UniProt Q02108+Q02153); assay: Assay of sGC activity ([32P]cGMP formation from GTP), purified wild type enzyme; assay type: biochemical
T2 construct: made in house; host or cells: Sf9 cells (baculovirus)
T2 sequence (Q02153 1-619): T1 sequence (Q02153 1-619 H105C) with C105H
T2 sequence (Q02108 1-690): T1 sequence (Q02108 1-690)
Method: sGC Expression and Purification. […] Purification of sGC was performed as described earlier (26), the disclosure of which is hereby incorporated herein by reference, with the following modifications. Cells were harvested 72 h post infection, resuspended in loading buffer (25 mM triethanolamine, pH 7.5. 10 glycerol, 4 mM MgCl2 and 1 mM phenylmethylsulfonyl fluoride, and 5 μg/ml each of pepstatin A, leupeptin, aprotinin, and chymostatin,) and lysed by sonication. The lysate was subjected to 100,000×g centrifugation for 1 h. The high-speed supernate was loaded on a 60 ml DEAE-Sepharose (Amersham Pharmacia Biotech) column and washed with 60 ml of loading buffer without protease inhibitors. The proteins were eluted with loading buffer containing 250 mM NaCl and the eluate was directly loaded on a 30 ml His-Bind resin (Novagen) column. The column was washed with 60 ml of loading buffer followed by 60 ml of loading buffer with 45 mM imidazole. The enzyme was eluted with 175 mM imidazole and 2 ml fractions were collected. […]
Assay of sGC Activity. […] Columns were then eluted with 10 ml 0.1 M Tris-HCl buffer (pH 7.5) and Cherenkov radiation in flow through plus eluate was counted in a LKB liquid scintillation spectrometer. […] The concentration of dimethylsulfoxide (DMSO) used as a vehicle for YC-1 was not higher than 0.1 and had no effect on sGC activity as determined previously.

## C=CC1=C(C)c2cc3[nH]c(cc4nc(cc5[nH]c(cc1n2)c(C)c5CCC(=O)O)C(CCC(=O)O)=C4C)c(C)c3C=C [PPIX, protoporphyrin IX]
[1]; absence of DTT
  specific activity with PPIX: 2.2 μmol cGMP/min/mg
[1]; presence of DTT
  activity with PPIX: 0.70 µmol/min/mg
[1]; +DTT
  PPIX activation, fold: 5.4 fold
[2]; absence of DTT
  activity with PPIX: 0.31 µmol/min/mg
[2]; presence of DTT
  activity with PPIX: 0.36 µmol/min/mg
